# Experimental data published in the supplement of paper PMC6411743.
# ± gives the standard deviation of the averaged measurements. Only a part is listed here, and it is no random draw.
# Columns and labels:
# Assay in all cases: NP40-soluble protein abundance relative to vehicle (solubility fold change) (ratio); higher = more soluble protein in presence of ATP
# ANKMY2 = molecular target: T1, ANKMY2 (UniProt Q8IV38)
# T1 sequence (whole entry): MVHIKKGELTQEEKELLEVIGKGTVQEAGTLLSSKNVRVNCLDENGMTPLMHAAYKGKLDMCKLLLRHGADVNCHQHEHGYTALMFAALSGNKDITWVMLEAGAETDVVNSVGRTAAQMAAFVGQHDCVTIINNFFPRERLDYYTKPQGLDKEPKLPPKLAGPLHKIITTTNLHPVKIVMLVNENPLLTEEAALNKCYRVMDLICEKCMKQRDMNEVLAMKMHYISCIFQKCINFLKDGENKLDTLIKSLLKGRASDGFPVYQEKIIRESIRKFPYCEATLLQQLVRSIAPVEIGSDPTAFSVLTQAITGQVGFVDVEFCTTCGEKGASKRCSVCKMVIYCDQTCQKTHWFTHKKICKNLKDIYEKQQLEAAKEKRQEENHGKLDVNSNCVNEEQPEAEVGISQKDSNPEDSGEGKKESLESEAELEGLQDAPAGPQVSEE
# Outline: (§1)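 Data come from three independent experiments in which Dounce-homogenised Jurkat crude lysate was treated at eight concentrations from 0.1 to 10 mM. Treatment ran 10 min at room temperature and then 3 min at 37 °C, after which 0.8% NP40 and benzonase were added for 60 min at 4 °C before ultracentrifugation. The supernatant underwent TMT labelling and LC-MS/MS, and vsn-normalised intensities were expressed as fold change against the detergent-processed vehicle in each replicate.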
# ENOSF1 = molecular target: T2, ENOSF1 (UniProt Q7L5Y1)
# T2 sequence (whole entry): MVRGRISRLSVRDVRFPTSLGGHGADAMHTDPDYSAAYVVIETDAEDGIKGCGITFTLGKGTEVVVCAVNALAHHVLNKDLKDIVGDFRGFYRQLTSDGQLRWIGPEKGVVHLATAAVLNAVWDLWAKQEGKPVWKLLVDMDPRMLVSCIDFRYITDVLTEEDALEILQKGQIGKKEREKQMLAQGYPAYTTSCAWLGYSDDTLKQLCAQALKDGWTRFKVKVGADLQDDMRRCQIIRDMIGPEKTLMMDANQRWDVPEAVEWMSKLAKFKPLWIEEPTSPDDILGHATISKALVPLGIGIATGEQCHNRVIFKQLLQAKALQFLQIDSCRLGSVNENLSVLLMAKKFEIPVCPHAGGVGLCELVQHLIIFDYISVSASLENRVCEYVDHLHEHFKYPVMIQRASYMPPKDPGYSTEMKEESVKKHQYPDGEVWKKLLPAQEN
# Outline: as §1
# ISCA2 = molecular target: T3, ISCA2 (UniProt Q86U28)
# T3 sequence (whole entry): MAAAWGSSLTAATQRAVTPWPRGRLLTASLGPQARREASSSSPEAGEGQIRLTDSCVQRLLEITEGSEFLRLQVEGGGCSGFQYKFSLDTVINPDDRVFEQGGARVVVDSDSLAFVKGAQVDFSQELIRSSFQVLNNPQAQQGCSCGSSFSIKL
# Outline: as §1
# NUFIP2 = molecular target: T4, NUFIP2 (UniProt Q7Z417)
# T4 sequence (whole entry): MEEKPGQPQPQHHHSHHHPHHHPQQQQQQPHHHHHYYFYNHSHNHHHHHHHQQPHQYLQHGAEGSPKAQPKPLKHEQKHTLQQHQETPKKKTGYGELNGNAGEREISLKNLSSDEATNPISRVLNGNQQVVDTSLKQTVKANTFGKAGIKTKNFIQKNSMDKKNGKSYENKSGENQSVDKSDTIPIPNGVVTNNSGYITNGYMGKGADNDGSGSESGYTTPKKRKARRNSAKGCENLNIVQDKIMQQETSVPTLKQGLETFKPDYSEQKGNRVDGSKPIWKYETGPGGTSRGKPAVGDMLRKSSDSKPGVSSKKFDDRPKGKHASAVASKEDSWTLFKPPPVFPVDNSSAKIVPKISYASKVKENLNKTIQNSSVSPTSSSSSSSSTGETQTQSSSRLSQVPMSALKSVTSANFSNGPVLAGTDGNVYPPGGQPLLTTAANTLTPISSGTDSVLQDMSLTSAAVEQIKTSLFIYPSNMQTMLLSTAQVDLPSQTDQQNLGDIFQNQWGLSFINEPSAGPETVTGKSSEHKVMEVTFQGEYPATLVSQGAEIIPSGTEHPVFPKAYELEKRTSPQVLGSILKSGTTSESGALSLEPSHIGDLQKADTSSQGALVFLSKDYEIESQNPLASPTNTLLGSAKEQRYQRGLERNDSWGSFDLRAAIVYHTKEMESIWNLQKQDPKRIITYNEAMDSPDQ
# Outline: as §1
# PLD3 = molecular target: T5, PLD3 (UniProt Q8IV08)
# T5 sequence (whole entry): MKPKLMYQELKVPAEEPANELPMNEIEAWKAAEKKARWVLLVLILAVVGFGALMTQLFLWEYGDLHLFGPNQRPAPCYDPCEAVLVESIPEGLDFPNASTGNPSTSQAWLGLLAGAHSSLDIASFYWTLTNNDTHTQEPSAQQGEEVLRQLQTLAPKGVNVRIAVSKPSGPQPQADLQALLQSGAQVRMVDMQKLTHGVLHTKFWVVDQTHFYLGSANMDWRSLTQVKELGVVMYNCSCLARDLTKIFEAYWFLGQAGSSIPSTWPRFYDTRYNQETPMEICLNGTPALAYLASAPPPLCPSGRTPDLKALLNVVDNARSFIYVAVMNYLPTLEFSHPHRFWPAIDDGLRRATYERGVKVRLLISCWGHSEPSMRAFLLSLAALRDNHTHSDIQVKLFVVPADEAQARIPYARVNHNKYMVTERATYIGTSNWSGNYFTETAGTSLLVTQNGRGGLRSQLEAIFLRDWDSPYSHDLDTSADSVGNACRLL
# Outline: as §1
compound,measurement,setting,value
Nc1ncnc2c1ncn2[C@@H]1O[C@H](COP(=O)(O)OP(=O)(O)OP(=O)(O)O)[C@@H](O)[C@H]1O [adenosine triphosphate],NP40-soluble protein abundance,ANKMY2; concentration: 1mM,0.95 ± 0.0076
same,NP40-soluble protein abundance,ANKMY2; concentration: 2mM,0.97 ± 0.021
same,NP40-soluble protein abundance,ANKMY2; concentration: 4mM,0.928 ± 0.034
same,NP40-soluble protein abundance,ANKMY2; concentration: 6mM,0.951 ± 0.024
same,NP40-soluble protein abundance,ANKMY2; concentration: 8mM,0.935 ± 0.044
same,NP40-soluble protein abundance,ANKMY2; concentration: 10mM,0.945 ± 0.035
same,NP40-soluble protein abundance,ENOSF1; concentration: 1mM,1.02 ± 0.066
same,NP40-soluble protein abundance,ENOSF1; concentration: 2mM,1.03 ± 0.038
same,NP40-soluble protein abundance,ENOSF1; concentration: 4mM,1.01 ± 0.06
same,NP40-soluble protein abundance,ENOSF1; concentration: 6mM,0.967 ± 0.069
same,NP40-soluble protein abundance,ENOSF1; concentration: 8mM,1.02 ± 0.02
same,NP40-soluble protein abundance,ENOSF1; concentration: 10mM,1.02 ± 0.028
same,NP40-soluble protein abundance,ISCA2; concentration: 1mM,0.986 ± 0.032
same,NP40-soluble protein abundance,ISCA2; concentration: 2mM,0.972 ± 0.033
same,NP40-soluble protein abundance,ISCA2; concentration: 4mM,0.997 ± 0.081
same,NP40-soluble protein abundance,ISCA2; concentration: 6mM,0.967 ± 0.058
same,NP40-soluble protein abundance,ISCA2; concentration: 8mM,0.946 ± 0.063
same,NP40-soluble protein abundance,ISCA2; concentration: 10mM,0.983 ± 0.065
same,NP40-soluble protein abundance,NUFIP2; concentration: 1mM,1.06 ± 0.096
same,NP40-soluble protein abundance,NUFIP2; concentration: 2mM,1.14 ± 0.09
same,NP40-soluble protein abundance,NUFIP2; concentration: 4mM,1.22 ± 0.084
same,NP40-soluble protein abundance,NUFIP2; concentration: 6mM,1.43 ± 0.11
same,NP40-soluble protein abundance,NUFIP2; concentration: 8mM,1.39 ± 0.1
same,NP40-soluble protein abundance,NUFIP2; concentration: 10mM,1.52 ± 0.093
same,NP40-soluble protein abundance,PLD3; concentration: 1mM,0.914 ± 0.019
same,NP40-soluble protein abundance,PLD3; concentration: 2mM,0.951 ± 0.11
same,NP40-soluble protein abundance,PLD3; concentration: 4mM,0.916 ± 0.067
same,NP40-soluble protein abundance,PLD3; concentration: 6mM,0.906 ± 0.067
same,NP40-soluble protein abundance,PLD3; concentration: 8mM,0.863 ± 0.044
same,NP40-soluble protein abundance,PLD3; concentration: 10mM,0.924 ± 0.046

# Two records picked at random from those above:
compound,measurement,setting,value
Nc1ncnc2c1ncn2[C@@H]1O[C@H](COP(=O)(O)OP(=O)(O)OP(=O)(O)O)[C@@H](O)[C@H]1O [adenosine triphosphate],NP40-soluble protein abundance,ISCA2; concentration: 8mM,0.946 ± 0.063
same,NP40-soluble protein abundance,ENOSF1; concentration: 2mM,1.03 ± 0.038
